Data from US5071835A (Bio-Mega Inc., priority 1989, dated 1991).
Strings that start with PEPTIDE1 are HELM notation: dots part the residues, brackets hold end groups and non-standard residues.

Test: general procedure: peptide synthesis; Boc-Phe-CH2-PAB resin
Conditions: whole synthesis, analytical HPLC, trifluoroacetate salt

Substance: PEPTIDE1{[ac].F.T.L.D.A.D.F}$$$$V2.0
- final HPLC purity: at least 95% homogeneous
